# Measured values: publication PMC8657792, “Interaction Profiles of Central Nervous System Active Drugs at Human Organic Cation Transporters 1–3 and Human Plasma Membrane Monoamine Transporter” (International Journal of Molecular Sciences, 2021)
# Read-outs that look alike come from different tables or passages of the source.
# Assays:
# hPMAT = biological target: T1, hPMAT (Homo sapiens, UniProt Q7RTT9); assay: [3H]MPP+ uptake inhibition assay, HEK293 cells stably expressing hPMAT; type: cell-based
# T1 construct: expressed in transfected cells
# T1 sequence (Q7RTT9 1-530): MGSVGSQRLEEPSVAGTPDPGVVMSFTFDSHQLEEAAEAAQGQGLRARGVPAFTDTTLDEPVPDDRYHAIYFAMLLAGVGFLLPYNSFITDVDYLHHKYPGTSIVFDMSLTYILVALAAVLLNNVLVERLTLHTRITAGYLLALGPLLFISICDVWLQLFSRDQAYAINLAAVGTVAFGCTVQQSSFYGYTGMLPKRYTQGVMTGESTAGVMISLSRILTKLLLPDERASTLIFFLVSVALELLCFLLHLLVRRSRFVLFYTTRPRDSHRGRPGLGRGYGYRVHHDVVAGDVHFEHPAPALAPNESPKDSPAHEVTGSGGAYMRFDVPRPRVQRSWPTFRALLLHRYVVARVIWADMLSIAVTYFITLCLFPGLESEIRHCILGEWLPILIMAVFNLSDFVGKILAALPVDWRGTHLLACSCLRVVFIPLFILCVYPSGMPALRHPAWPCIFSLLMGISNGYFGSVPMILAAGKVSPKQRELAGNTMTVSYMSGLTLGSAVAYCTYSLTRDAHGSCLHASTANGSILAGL
# hOCT1 = biological target: T2, hOCT1 (Homo sapiens, UniProt O15245); assay: [3H]MPP+ uptake inhibition assay, HEK293 cells stably expressing hOCT1; type: cell-based
# T2 construct: expressed in transfected cells
# T2 sequence (O15245 1-554): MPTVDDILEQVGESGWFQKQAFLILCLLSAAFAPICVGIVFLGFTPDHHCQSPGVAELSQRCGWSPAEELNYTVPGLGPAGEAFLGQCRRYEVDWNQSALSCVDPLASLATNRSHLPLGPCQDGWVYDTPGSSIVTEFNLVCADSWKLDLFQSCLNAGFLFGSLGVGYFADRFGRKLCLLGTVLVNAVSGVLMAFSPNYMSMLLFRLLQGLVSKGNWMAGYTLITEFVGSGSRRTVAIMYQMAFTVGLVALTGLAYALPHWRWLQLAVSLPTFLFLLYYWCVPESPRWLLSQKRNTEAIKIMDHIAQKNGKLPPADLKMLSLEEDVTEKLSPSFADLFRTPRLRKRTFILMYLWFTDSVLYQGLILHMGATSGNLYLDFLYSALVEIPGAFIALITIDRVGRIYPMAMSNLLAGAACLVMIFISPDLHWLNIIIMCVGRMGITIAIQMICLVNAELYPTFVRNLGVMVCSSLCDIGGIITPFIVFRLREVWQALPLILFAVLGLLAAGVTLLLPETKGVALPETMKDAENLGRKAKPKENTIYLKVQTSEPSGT
# hOCT3 [1] = biological target: T3, hOCT3 (Homo sapiens, UniProt O75751); settings: read-out: IC50 at hOCT3 reported by a previous study; fluorescent ASP+ as tracer; Massmann and colleagues; cited from earlier work
# T3 construct: expressed in transfected cells
# T3 sequence (O75751 1-556): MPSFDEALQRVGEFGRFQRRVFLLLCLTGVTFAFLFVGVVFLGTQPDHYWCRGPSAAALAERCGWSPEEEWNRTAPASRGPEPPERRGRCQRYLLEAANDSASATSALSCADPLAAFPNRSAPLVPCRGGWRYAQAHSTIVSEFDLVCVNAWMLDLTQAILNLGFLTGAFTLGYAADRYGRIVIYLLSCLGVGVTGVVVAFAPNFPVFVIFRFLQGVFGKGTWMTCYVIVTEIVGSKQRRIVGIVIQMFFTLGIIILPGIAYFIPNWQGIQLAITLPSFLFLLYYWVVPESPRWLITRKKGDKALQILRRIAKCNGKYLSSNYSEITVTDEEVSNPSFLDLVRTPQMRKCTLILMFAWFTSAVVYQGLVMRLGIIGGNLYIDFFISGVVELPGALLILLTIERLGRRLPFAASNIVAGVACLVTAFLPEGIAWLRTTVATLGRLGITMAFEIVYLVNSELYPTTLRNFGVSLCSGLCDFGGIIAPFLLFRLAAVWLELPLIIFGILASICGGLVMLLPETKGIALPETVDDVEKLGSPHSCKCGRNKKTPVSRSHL
# hOCT3 [2] = biological target: T3, hOCT3; assay: [3H]MPP+ uptake inhibition assay, HEK293 cells stably expressing hOCT3; type: cell-based
# hOCT2 = biological target: T4, hOCT2 (Homo sapiens, UniProt O15244); assay: [3H]MPP+ uptake inhibition assay, HEK293 cells stably expressing hOCT2; type: cell-based
# T4 construct: expressed in transfected cells
# T4 sequence (O15244 1-555): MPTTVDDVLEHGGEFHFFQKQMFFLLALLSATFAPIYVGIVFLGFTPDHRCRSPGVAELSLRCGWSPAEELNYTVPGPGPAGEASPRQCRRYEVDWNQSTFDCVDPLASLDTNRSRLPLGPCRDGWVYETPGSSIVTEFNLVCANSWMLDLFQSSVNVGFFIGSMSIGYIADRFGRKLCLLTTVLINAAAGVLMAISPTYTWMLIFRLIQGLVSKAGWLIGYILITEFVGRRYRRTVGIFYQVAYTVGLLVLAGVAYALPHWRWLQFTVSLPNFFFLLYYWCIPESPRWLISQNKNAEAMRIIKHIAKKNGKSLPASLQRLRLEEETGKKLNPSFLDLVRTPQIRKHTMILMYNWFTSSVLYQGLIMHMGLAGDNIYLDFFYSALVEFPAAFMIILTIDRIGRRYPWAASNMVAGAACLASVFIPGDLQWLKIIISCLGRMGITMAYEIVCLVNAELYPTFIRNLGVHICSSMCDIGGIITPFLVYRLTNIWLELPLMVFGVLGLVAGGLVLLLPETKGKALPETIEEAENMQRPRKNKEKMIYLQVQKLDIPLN
smiles,measurement,setting,value
"CN1C(=O)CN=C(c2ccccc2)c2cc(Cl)ccc21 [Diazepam, diazepam]",Effect on substrate uptake by hPMAT (in words),hPMAT,fully inhibited substrate uptake
same,Effect on substrate uptake by hOCT1 (in words),hOCT1,fully inhibited substrate uptake
same,IC50,hOCT3 [1],2 µM
same,IC50,hOCT3 [2],44.5 µM
same,Effect on substrate uptake by hOCT3 (in words),"hOCT3 [2]; [3H]MPP+ uptake, HEK293 hOCT3",fully inhibited substrate uptake
same,Effect on substrate uptake by hOCT2 (in words),hOCT2,fully inhibited substrate uptake
